Source: doi:10.1101/2021.05.03.442108
No constants are given. Whether binding was seen depends on the method and setting. Binding seen in cells or lysates may run through a third protein. A yes stands for co-enrichment or nearness to the bait. Other partners may have been found.

Target: NKS1-GFP (Arabidopsis thaliana) (UniProt F4JR56)
Test: affinity purification with mass spectrometry

Binder	binding
QUA1 (protein, UniProt Q9LSG3 1-559) MANHHRLLRGGGSPAIIGGRITLTAFASTIALFLFTLSFFFASDSNDSPDLLLPGVEYSNGVGSRRSMLDIKSDPLKPRLIQIRKQADDHRSLALAYASYARKLKLENSKLVRIFADLSRNYTDLINKPTYRALYDSDGASIEESVLRQFEKEVKERIKMTRQVIAEAKESFDNQLKIQKLKDTIFAVNEQLTNAKKQGAFSSLIAAKSIPKGLHCLAMRLMEERIAHPEKYTDEGKDRPRELEDPNLYHYAIFSDNVIAASVVVNSAVKNAKEPWKHVFHVVTDKMNLGAMQVMFKLKEYKGAHVEVKAVEDYTFLNSSYVPVLKQLESANLQKFYFENKLENATKDTTNMKFRNPKYLSILNHLRFYLPEMYPKLHRILFLDDDVVVQKDLTGLWEIDMDGKVNGAVETCFGSFHRYAQYMNFSHPLIKEKFNPKACAWAYGMNFFDLDAWRREKCTEEYHYWQNLNENRALWKLGTLPPGLITFYSTTKPLDKSWHVLGLGYNPSISMDEIRNAAVVHFNGNMKPWLDIAMNQFRPLWTKHVDYDLEFVQACNFGL	binds
QUA2 (protein, UniProt Q9C9Q8 1-684) MSMPLQRGISGVRVSDSSDDLRDSQMKDKTERARSTENNNLTLRFPFGFLFSNQSSSKHGGGGENGFSADPYSARSRHRLMLLFLKISLVLIVVIALAGSFWWTISISTSSRGHVYHNYRRLQEQLVSDLWDIGEISLGPNRWKELEYCNIESENFVPCFNVSENLALGYSNGDENDRFCGPGSKQECLELPPVKYRVPLRWPTGKDIIWHSNVKITAQEVVSSGSITKRMMMMEDDQISFRSASPMSDEVEDYSHQIAEMIGIKKDNFIEAGVRTILDIGCGYGSFGAHLLSKQILTMCIANYEASGSQVQLTLERGLPAMIGSFISKQLPYPSLSFDMLHCLRCGIDWDQKDGLLLVEIDRVLKPGGYFVWTSPLTNPRNKDHLKRWNFVHDFAESICWTLLNQQDETVVWKKTINTKCYSSRKPGVGPSVCTKGHDVESPYYRPLQMCIGGTRSRRWIPIEGRTRWPSRSNMNKTELSLYGLHPEVLGEDAENWKITVREYWSLLSPLIFSDHPKRPGDEDPSPPYNMLRNVLDMNAQFGGLNSALLEARKSVWVMNVVPTAGPNHLPMILDRGFVGVLHNWCEPFPTYPRTYDLVHADNLLSLQTSQPRKTCLLIDIFTEIDRLLRPEGWVIIRDTAQLVEKARETITQLKWEARVIEVESSSEQRLLICQKPFTKRQSI	binds
